PubChem BioAssay AID1259254 – NCATS, 2017
In all, the deposit lists about 59,000 reagents; below is an unselected part. About 1,550 of all reagents (2.6%) were called active. 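G2 share is only a proxy for re-replication; each gene was hit by three separate siRNAs, and active genes were retested.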 A number with no mark means an inactive call. The numbers tell different reagents against one gene apart. Further read-outs or replicates are left out here. No sequences are given here. Not given: the amount of reagent.

Screen: 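Finding genes that stop cells copying their DNA twice in one cycle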 (primary screen)
Cell system: human HCT116 colorectal cancer cells
Reagent: single siRNA against human genes
Timing: 3 days
Measurement: 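Imaged Hoechst DNA stain sorts each cell into a cycle phase by DNA amount; per plate, G2 fraction set to 0% for non-targeting and 100% for GMNN siRNA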
Scale: G2 robust z-score and G2 cells, % of GMNN control: higher = more G2 cells, more excess DNA replication
Rule for the call: 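Active siRNAs have a G2 robust z of 5 or more median absolute deviations over the median, which in these data means about 38% or higher of GMNN control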

CCT2 #1: G2 robust z-score = 0.837; G2 cells, % of GMNN control = 8.86
CCT2 #2: G2 robust z-score = 4.31; G2 cells, % of GMNN control = 33.3
CCT2 #3: G2 robust z-score = 1.1; G2 cells, % of GMNN control = 10.7
ACTL7B #1: G2 robust z-score = 0.214; G2 cells, % of GMNN control = 4.47
ACTL7B #2: G2 robust z-score = 0.34; G2 cells, % of GMNN control = 5.36
ACTL7B #3: G2 robust z-score = 2.45; G2 cells, % of GMNN control = 20.2
USP5 #1: G2 robust z-score = -1.64; G2 cells, % of GMNN control = -8.57
USP5 #2: G2 robust z-score = -0.878; G2 cells, % of GMNN control = -3.21
USP5 #3: G2 robust z-score = -0.282; G2 cells, % of GMNN control = 0.982
COG8 #1: G2 robust z-score = 0.683; G2 cells, % of GMNN control = 7.77
COG8 #2: G2 robust z-score = -0.727; G2 cells, % of GMNN control = -2.15
COG8 #3: G2 robust z-score = -0.506; G2 cells, % of GMNN control = -0.592

In a second layout: entries from further up
gene symbol,siRNA no.,G2 robust z-score,"G2 cells, % of GMNN control"
CCT2,1,0.837,8.86
CCT2,2,4.31,33.3
